PubChem BioAssay AID1259291, Sanger Institute – 2017
Aim: 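Genes needed for HT29 colorectal cancer cell survival or for sensitivity to drugs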 (primary screen). Cell system: HT29 human colorectal cancer cells. Knock-down reagent: siRNA pool against human genes. Conditions: anchor drugs added a day after transfection: BYL719 at 1 µM, cetuximab at 5 µg/ml or trametinib at 10 nM, or DMSO vehicle alone. Measurement: 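Cell viability as a fraction of the non-targeting pool, mean of replicates, robust z-scores from control wells; synergy scores for BYL719 (1 µM), cetuximab (5 µg/ml), trametinib (10 nM)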. Scale: robust z-score, knock-down alone and viability, knock-down alone: higher = more viable cells. Units: viability, knock-down alone in fraction of control. Hit rule: 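Essential when the robust z-score for knock-down without any drug is below -3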. Calls: active = essential (knock-down alone); inactive = no change alone.
This is a random part of 794 deposited reagents. 15 of all reagents (1.9%) count as active. 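Calls rest on knock-down alone; drug synergy scores do not affect them; drugs added a day post-transfection, DMSO vehicle as comparison.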 No viability above 1 is reported: the scale is capped. Not all columns of the deposit are shown. The record does not give: the amount of reagent, the time to read-out.

Knock-down of KCNH2 [SID135621164] resulted in: robust z-score, knock-down alone 0.552; viability, knock-down alone 1; inactive.
After knock-down of TP53BP1 [SID134309949], the record shows robust z-score, knock-down alone -0.943; viability, knock-down alone 0.907; inactive.
With knock-down of EPHB6 [SID152155826], the record shows robust z-score, knock-down alone -0.61; viability, knock-down alone 0.928; inactive.
For SGK1 [SID152156682], the values are robust z-score, knock-down alone 0.552; viability, knock-down alone 1; inactive.
PFKFB2 [SID135621246] scored robust z-score, knock-down alone 0.529; viability, knock-down alone 0.999; inactive.
POLR2B [SID134315545] scored robust z-score, knock-down alone -5.67; viability, knock-down alone 0.614; active.
With knock-down of EPHA4 [SID152148822] the results were robust z-score, knock-down alone 0.121; viability, knock-down alone 0.973; inactive.
Knock-down of NTN4 [SID152155179] resulted in: robust z-score, knock-down alone -2.22; viability, knock-down alone 0.828; inactive.
CDK5R1 [SID135621688] scored robust z-score, knock-down alone 0.552; viability, knock-down alone 1; inactive.
Knock-down of ASPM [SID135623115] came out at: robust z-score, knock-down alone -0.13; viability, knock-down alone 0.958; inactive.
Silencing of PRKAG1 [SID135621699] resulted in: robust z-score, knock-down alone 0.552; viability, knock-down alone 1; inactive.
MET [SID56478534] scored robust z-score, knock-down alone 0.552; viability, knock-down alone 1; inactive.
After knock-down of XYLB [SID152153831], the screen gave robust z-score, knock-down alone 0.552; viability, knock-down alone 1; inactive.
For PIK3C2G [SID152155956] the deposit lists robust z-score, knock-down alone 0.552; viability, knock-down alone 1; inactive.
After knock-down of STYK1 [SID56478493], the record shows robust z-score, knock-down alone 0.381; viability, knock-down alone 0.989; inactive.
TPD52L3 [SID56479192] showed robust z-score, knock-down alone 0.552; viability, knock-down alone 1; inactive.
ABL2 [SID152153611] showed robust z-score, knock-down alone 0.48; viability, knock-down alone 0.996; inactive.
After knock-down of LMTK2 [SID152147902] the results were robust z-score, knock-down alone 0.552; viability, knock-down alone 1; inactive.
Knock-down of EPHB3 [SID56478503] came out at: robust z-score, knock-down alone -1.18; viability, knock-down alone 0.892; inactive.
With knock-down of CDADC1 [SID56479191] the results were robust z-score, knock-down alone 0.552; viability, knock-down alone 1; inactive.
Silencing of PFKL [SID56479167] gave: robust z-score, knock-down alone -1.46; viability, knock-down alone 0.875; inactive.
With knock-down of SIK3 [SID135620886], the record shows robust z-score, knock-down alone -0.0842; viability, knock-down alone 0.961; inactive.
Silencing of GTF2H1 [SID56479243] gave: robust z-score, knock-down alone 0.552; viability, knock-down alone 1; inactive.
For STK4 [SID56478776], the values are robust z-score, knock-down alone -0.9; viability, knock-down alone 0.91; inactive.
Against BMPR2 [SID135620969] the deposit lists robust z-score, knock-down alone 0.219; viability, knock-down alone 0.979; inactive.
After knock-down of LMTK3 [SID152150242], the screen gave robust z-score, knock-down alone 0.123; viability, knock-down alone 0.973; inactive.
Knock-down of INSRR [SID56479015] came out at: robust z-score, knock-down alone 0.552; viability, knock-down alone 1; inactive.
Silencing of EPHB4 [SID152156322] gave: robust z-score, knock-down alone 0.552; viability, knock-down alone 1; inactive.
